No constants are given. Whether binding was seen depends on the method and setting. Binding seen in cells or lysates may run through a third protein. Some results given as binding are weak or reduced against the parent protein; the word gives no strength. Sequences can lack the tags named with a protein.
Key:
[1] = target: Akt1 (endogenous, in lysates of human Caco-2 or SW620 colon cancer cells) (human) (UniProt P31749); experiment: GST pull-down from cell lysate, western blot for Akt1
purified Akt1 (Origene) = purified Akt1 (Origene) (UniProt P31749); experiment: GST pull-down of purified Akt1, western blot for Akt1
[2] = target: Akt1 (endogenous, in lysates of human Caco-2 or SW620 colon cancer cells) (human) (UniProt P31749); experiment: GST pull-down of Akt1 from cell lysate by GST-FAK truncations on beads, western blot

Amino acid sequences for entries named in this document (tags omitted).
UniProt P31749: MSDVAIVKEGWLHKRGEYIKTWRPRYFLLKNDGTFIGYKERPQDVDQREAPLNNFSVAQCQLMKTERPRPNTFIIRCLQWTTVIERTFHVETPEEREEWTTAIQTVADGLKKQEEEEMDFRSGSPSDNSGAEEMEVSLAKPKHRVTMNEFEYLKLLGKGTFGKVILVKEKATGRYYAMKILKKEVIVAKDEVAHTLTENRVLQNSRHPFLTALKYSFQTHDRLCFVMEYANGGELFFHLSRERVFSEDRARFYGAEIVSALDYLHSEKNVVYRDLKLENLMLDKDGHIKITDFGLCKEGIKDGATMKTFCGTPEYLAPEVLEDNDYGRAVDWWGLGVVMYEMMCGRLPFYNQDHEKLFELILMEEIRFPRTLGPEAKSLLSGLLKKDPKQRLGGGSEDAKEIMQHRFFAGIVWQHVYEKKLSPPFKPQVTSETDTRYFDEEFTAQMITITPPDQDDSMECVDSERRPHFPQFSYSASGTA

binding [1]	binding (purified Akt1 (Origene))	binding [2]	Binder
binds	binds	binds	GST-FAK-NT1 (FAK residues 1-126) (protein, not shown: a dimerising Fc or GST) MAAAYLDPNLNHTPNSSTKTHLGTGMERSPGAMERVLKVFHYFESNSEPTTWASIIRHGDATDVRGIIQKIVDSHKVKNVACYGFRLSHLRSEEVHWLHVDMGVSSVREKYELAHPPEEWKYELRI
		binds	GST-FAK-NT1-2 (FAK residues 61-126) (protein, not shown: a dimerising Fc or GST) ATDVRGIIQKIVDSHKVKNVACYGFRLSHLRSEEVHWLHVDMGVSSVREKYELAHPPEEWKYELRI

From patent US20200164046A1
